At least one structure is not confirmed: it was looked up by name or label, or the drawing left a doubt. Some compounds share one wording; it may come from a single statement.
Experiments:
murine COX-2 = target: T1, murine COX-2 (Mus musculus, UniProt Q05769); assay: In vitro purified COX-2 inhibition assay (TLC, 14C-arachidonic acid); format: biochemical; settings: purified COX enzymes
T1 sequence (Q05769 18-604): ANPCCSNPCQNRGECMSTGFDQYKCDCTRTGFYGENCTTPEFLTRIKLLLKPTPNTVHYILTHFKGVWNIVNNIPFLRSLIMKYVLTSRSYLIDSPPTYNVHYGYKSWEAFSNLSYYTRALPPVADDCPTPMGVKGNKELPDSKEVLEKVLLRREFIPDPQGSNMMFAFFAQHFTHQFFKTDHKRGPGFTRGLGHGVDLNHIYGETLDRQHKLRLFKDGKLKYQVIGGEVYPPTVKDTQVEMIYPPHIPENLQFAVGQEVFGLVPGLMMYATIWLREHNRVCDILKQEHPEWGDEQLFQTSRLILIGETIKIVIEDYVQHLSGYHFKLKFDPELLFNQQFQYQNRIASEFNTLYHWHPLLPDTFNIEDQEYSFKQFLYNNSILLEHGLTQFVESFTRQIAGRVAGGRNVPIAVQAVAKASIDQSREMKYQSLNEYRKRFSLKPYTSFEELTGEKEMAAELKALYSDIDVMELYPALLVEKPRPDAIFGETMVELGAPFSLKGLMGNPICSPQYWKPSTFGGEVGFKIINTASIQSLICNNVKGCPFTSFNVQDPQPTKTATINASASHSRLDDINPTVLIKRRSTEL
Method: The in vitro cyclooxygenase (ovine COX-1 or human COX-2) inhibitory activities of these probes were tested by a previously described TLC assay (FIGS. 19-21). Briefly, reaction mixtures of 200 μL consisted of hematin-reconstituted protein in 100 mM Tris-HCl, pH 8.0, 500 μM phenol, and [1-^14C]arachidonic acid (50 μM, about 55-57 mCi/mmol, Perkin Elmer).
Inhibition Assay Using Purified COX-1 and COX-2. Inhibition of purified ovine COX-1 or mouse COX-2 by test compounds was assayed by a previously described method, which quantifies the conversion of [1-^14C]arachidonic acid to [1-^14C]prostaglandin products. Reaction mixtures of 200 ∝L consisted of hematin-reconstituted protein in 100 mM Tris-HCl, pH 8.0, 500 μM phenol, and [1-^14C]arachidonic acid (50 μM, ˜55-57 mCi/mmol, Perkin Elmer). For the time-dependent inhibition assay, hematin-reconstituted COX-1 ([…]) was preincubated at 25° C. for 17 min and 37° C. for 3 min with varying inhibitor concentrations in dimethylsulfoxide followed by the addition of [1-^14C]arachidonic acid (50 μM) for 30 s at 37° C. Reactions were terminated by solvent extraction in diethyl ether:methanol:1 M citrate buffer, pH 4.0 (30:4:1). The phases were separated by centrifugation at 2000 g for 2 min, and the organic phase was spotted on a thin-layer chromatography plate (EMD Kieselgel 60, VWR). The plate was developed in ethyl acetate:methylene chloride:glacial AcOH (75:25:1) at 4° C. Radiolabeled products were quantified with a radioactivity scanner (Bioscan, Inc., Washington, D.C.).

[1] = Fluorescence activation by incubation with ascorbic acid; format: physicochemical
[2] = test system: COX-2 expressing 1483 tumors; assay: In vivo imaging of nude mice with 1483 xenografts; settings: 1 mg/kg intraperitoneal, 3 h post-injection, nude mice 1483 xenografts
Method: The specificity of probe 1 was also evaluated by targeting COX-2 in human tumor xenografts. Nude mice bearing 1483 xenograft tumors on the left flank were dosed by intraperitoneal injection with 1 mg/kg fluorocoxib A or compound 1 (FIG. 25). […] However, signal was detected in the COX-2 expressing 1483 tumors of mice dosed with compound 1 starting at 24 h. Maximum fluorescence is detectable in the tumor at 48 h post-injection of probe 1 (FIGS. 27A-C).
Establishment of xenograft tumors in nude mice. Human 1483 HNSCC cells and HCT116 colorectal carcinoma cells were used to grow tumor xenografts in nude mice using a previously described method. Female nude mice, NU-Foxlnu, were purchased at 6-7 weeks of age from Charles River Labs. Human 1483 HNSCC cells were trypsinized and resuspended in cold PBS containing 30% Matrigel such that 1×10^6 cells in 100 μl were injected subcutaneously on the left flank and grew for 2-3 weeks.
In vivo imaging of nude mice with xenografts. Fluorescence imaging of tumors by test compounds was performed by a previously described method. Female nude mice bearing medium-sized 1483 xenograft tumors on the left flank were dosed by intraperitoneal injection with 1 mg/kg compound 1. The animals were lightly anesthetized with 2% isoflurane for fluorescence imaging in the Xenogen IVIS 200 with the DSRed filter at 1.5 cm depth and 1 sec exposure (f2).

[3] = Fluorometry: extinction, quantum yield, fluorescence in DMSO/EtOH; format: physicochemical
Method: The TEMPO- and PROXYL-fluorocoxib probes are non-fluorescent (Φfl<0.3) in their non-trapped form, whereas fluorocoxib A or B are highly fluorescent (Φfl[…]) (FIG. 13). However, the absorbance and fluorescence of the TEMPO- and PROXYL-fluorocoxib probes increases in a time-dependent fashion when incubated in a DMSO/EtOH solution (FIGS. 14-15). Referring to FIG. 15, it is noted that at about 16 hours, fluorescence (ex 586 nm) read about 120,000 cps at 607 nm. Turning to FIG. 16, as compared to 5-ROX acid, which had extinction of 36/mM/cm at 580 nm and quantum yield of 0.94 at 604 nm, and fluorocoxib A, which had extinction of 45/mM/cm at 579 nm and quantum yield of 0.93 at 602 nm, fluorocoxib Q1 had extinction of less than 0.4/mM/cm at 586 nm and quantum yield of less than 0.36 at 607 nm. Without wishing to be bound by theory, it is believed that the time-dependent increase in fluorescence and measured fluorescence at 607 nm is the result of reduction/oxidation of fluorocoxib Q1 in the DMSO/EtOH solution (FIG. 16).
Fluorometry. Steady state fluorescence excitation and emission spectra were determined for each compound with a Spex 1681 Fluorolog spectrofluorometer, equipped with a 450 W xenon arc lamp. […]

1483 HNSCC cells = assay: Fluorescence microscopy of 1483 HNSCC cells; format: cell-based, human; settings: 1483 cells, after washout
Method: To test the specific activation of probes in cancer cells, compound 1 was incubated at selected time points (0.5, 1.0, 2.0, 3.0 h). After washout, the cells were imaged under fluorescence microscope.
Fluorescence microscopy of 1483 HNSCC cells. Fluorescence imaging of human 1483 HNSCC cells by compound 1 was performed by a previously described method. Briefly, human 1483 HNSCC cells were grown to 60% confluence. The cells were incubated in 2.0 ml Hank's balanced salt solution (HBSS)/Tyrode's with 200 nM compound 1 for 30 min at 37° C. The cells were then washed briefly three times and incubated in HBSS/Tyrode's for 30 min at 37° C. Following the required washout period, the cells were imaged in 2.0 ml fresh HBSS/Tyrode's on a Zeiss Axiovert 25 Microscope with the propidium iodide filter (0.5-1.0 sec exposure, gain of 2).

## COc1ccc2c(c1)c(CC(=O)NCCCCNC(=O)c1ccc(C3=c4cc5c6c(c4Oc4c3cc3c7c4CCCN7CCC3)CCC[N+]=6CCC5)c(C(=O)NCC3CC(C)(C)N([O])C3(C)C)c1)c(C)n2C(=O)c1ccc(Cl)cc1 (stereo not shown) [Compound 5]
Murine COX-2
  selectivity of COX-2 inhibition (in words): inhibited COX-2 selectively, although with less potency

## COc1ccc2c(c1)c(CC(=O)NCCCCNC(=O)c1ccc(C(=O)NC3CC(C)(C)N([O])C(C)(C)C3)c(C3=c4cc5c6c(c4Oc4c3cc3c7c4CCCN7CCC3)CCC[N+]=6CCC5)c1)c(C)n2C(=O)c1ccc(Cl)cc1 [Compound 2]
Murine COX-2
  selectivity of COX-2 inhibition (in words): selective COX-2 inhibition

## COc1ccc2c(c1)c(CC(=O)NCCCCNC(=O)c1ccc(C3=c4cc5c6c(c4Oc4c3cc3c7c4CCCN7CCC3)CCC[N+]=6CCC5)c(C(=O)OC3CC(C)(C)N([O])C(C)(C)C3)c1)c(C)n2C(=O)c1ccc(Cl)cc1 [Compound 4]
Murine COX-2
  selectivity of COX-2 inhibition (in words): inhibited COX-2 selectively, although with less potency

## COc1ccc2c(c1)c(CC(=O)NCCCCNC(=O)c1ccc(C3=c4cc5c6c(c4Oc4c3cc3c7c4CCCN7CCC3)CCC[N+]=6CCC5)c(C(=O)NC3CC(C)(C)N([O])C(C)(C)C3)c1)c(C)n2C(=O)c1ccc(Cl)cc1 [Compound 1]
[1]; ascorbic acid increased 10-, 100-, 1000-folds
  fluorescence versus ascorbic acid concentration: Concentration dependent fluorescence increases
[1]; incubated with ascorbic acid, measured fluorometrically
  fluorescence on incubation with ascorbic acid, time course: time-dependent increase of fluorescence
[2]
  fluorescence in the tumor: no fluorescence was observed in the tumor
Murine COX-2
  selectivity of COX-2 inhibition (in words): selective COX-2 inhibition
[3]; DMSO/EtOH solution, at about 16 hours
  fluorescence (ex 586 nm) at 607 nm: about 120,000 cps
[3]; DMSO/EtOH, at 580 nm (5-ROX acid), 579 nm (fluorocoxib A), 586 nm (fluorocoxib Q1)
  extinction: less than 0.4 /mM/cm
[3]; DMSO/EtOH, at 604 nm (5-ROX acid), 602 nm (fluorocoxib A), 607 nm (fluorocoxib Q1)
  quantum yield: less than 0.36
1483 HNSCC cells; 0.5-1 h preincubation
  intracellular fluorescence: no significant intracellular fluorescence
1483 HNSCC cells; 2-3 h preincubation
  intracellular fluorescence: bright fluorescence appeared inside the cells

## COc1ccc2c(c1)c(CC(=O)NCCCCNC(=O)c1ccc(C3=c4cc5c6c(c4Oc4c3cc3c7c4CCCN7CCC3)CCC[N+]=6CCC5)c(C(=O)Nc3ccc(C(=O)OC4CC(C)(C)N([O])C(C)(C)C4)cc3)c1)c(C)n2C(=O)c1ccc(Cl)cc1 [Compound 3]
Murine COX-2
  selectivity of COX-2 inhibition (in words): selective COX-2 inhibition
